Experimental data reported in patent US20110152313A1 (MACQUARIE UNIVERSITY, priority 2008, published 2011).
At least one compound was matched to its structure with a doubt left.

Molecular target: CK1
Test: protein kinase activity assay (CK1-specific peptide substrate)
Format: biochemical, porcine
Conditions: 15 μM ATP, 30° C.; tested up to 100 μM
Description: Buffer A: 10 mM MgCl2, 1 mM EGTA, 1 mM DTT, 25 mM Tris-HCl pH 7.5, 50 μg heparin/mL. Buffer C: 60 mM β-glycerophosphate, 15 mM p-nitrophenylphosphate, 25 mM Mops (pH 7.2), 5 mM EGTA, 15 mM MgCl2, 1 mM DTT, 1 mM sodium vanadate, 1 mM phenyl phosphate.
Anticancer activity is commonly associated with the inhibition of kinase enzymes. […] Blank values are subtracted and activities expressed as percent of the maximal activity, i.e. in the absence of inhibitors (Table 4). Controls were performed with appropriate dilutions of DMSO, which was used to dissolve all test compounds.
CDK1/cyclin B (native M phase starfish oocytes), and CDK5/p25 (recombinant human) can be prepared according to the prior art (Meijer, L.; Thunnissen, A. M. W. H.; White, A. W.; Gamier, M.; Nikolic, M., et al. Chem. Biol. 2000, 7, 51-63). Kinase activity can be assayed in buffer C, with 1 mg histone H1/mL, in the presence of 15 μM [γ-^32P] ATP (3,000 Ci/mmol, 10 mCi/mL) in a final volume of 30 μL. After 30 min. incubation at 30° C., 25 μL aliquots of supernatant are spotted onto 2.5×3 cm pieces of Whatman P81 phosphocellulose paper and, 20 s later, the filters are washed five times (for at least 5 min. each time) in a solution of 10 mL phosphoric acid/L of water. The wet filters are then counted in the presence of 1 mL ACS (Amersham) scintillation fluid. […]

## Nc1nc2c(-c3cc(Br)c(Br)[nH]3)nccc2[nH]1 [Ageladine A, ageladine A, reference compound]
  IC50: 50 µM
